Screen size: about 360,000 compounds; about 10,000 (2.8%) were called active. Inconclusive results, whose numbers are uncertain, are shown with a selection of clear calls. Calls come from the whole dose curve; as a rule, active = well fitted inhibition curve with a large enough effect; inconclusive = small, poorly fitted or top-dose-only effect; inactive = flat fitted curve, though single readings scatter. Potencies of inconclusive entries are doubtful fits and often do not repeat.
Target: Serine/threonine-protein kinase PLK1 (Homo sapiens) (UniProt P53350)
Test: qHTS for Inhibitors of PLK1-PDB (polo-like kinase 1 - polo-box domain): Primary Screen; note: nearly all actives have a fitted effect of over 65% in size; for max response, negative = inhibition: series mostly up to about 57 µM
Conditions: Plk1 PBD binding of FITC phosphopeptide, fluorescence polarization
% is set by controls: 0 for no effect and ±100 for the full control effect; potency is the fitted concentration of half-maximal effect.

Amino acid sequences for entries named in this document (tags omitted).
UniProt P53350, whole entry, looked up: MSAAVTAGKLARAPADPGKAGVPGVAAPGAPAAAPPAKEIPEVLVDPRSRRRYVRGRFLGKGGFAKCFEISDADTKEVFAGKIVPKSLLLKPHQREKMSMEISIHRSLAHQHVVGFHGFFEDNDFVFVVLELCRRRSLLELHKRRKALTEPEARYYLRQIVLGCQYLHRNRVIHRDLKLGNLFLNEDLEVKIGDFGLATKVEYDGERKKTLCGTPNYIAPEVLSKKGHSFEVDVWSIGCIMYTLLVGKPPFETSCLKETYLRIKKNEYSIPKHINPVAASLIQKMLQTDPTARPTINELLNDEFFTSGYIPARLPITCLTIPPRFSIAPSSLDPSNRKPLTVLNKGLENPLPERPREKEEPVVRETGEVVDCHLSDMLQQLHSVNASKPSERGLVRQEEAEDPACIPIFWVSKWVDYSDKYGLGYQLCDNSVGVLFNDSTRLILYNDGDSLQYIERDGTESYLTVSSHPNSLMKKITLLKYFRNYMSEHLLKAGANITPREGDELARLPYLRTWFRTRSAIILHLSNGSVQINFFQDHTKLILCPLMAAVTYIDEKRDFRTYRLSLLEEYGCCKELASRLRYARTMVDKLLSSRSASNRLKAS

`Cc1ccc(N2C(=O)NC(=O)/C(=C\c3cc(C)n(-c4cc(C(=O)O)cc(C(=O)O)c4)c3C)C2=O)cc1` was tested. Which Potency did it give?
Its Potency is inconclusive: 29.9 µM [inhibitor, partial curve].

With `C=CCN1C(=O)NC(=O)/C(=C/c2cccn2C)C1=O` as the molecule, how does the Potency read?
Its Potency is active: 29.9 µM.

For `COc1ccc(OCc2n[nH]c(=S)n2Cc2ccco2)cc1`, which Potency is on record?
Its Potency is active: 26.7 µM.

With `O=C(O)CCC(=O)N1N=C(c2c(-c3ccccc3)c3cc(Cl)ccc3[nH]c2=O)CC1c1ccco1` (configuration not stated) as the molecule, how does the Potency read?
Its Potency is inconclusive: 42.3 µM [inhibitor, partial curve].

How did the Potency turn out when `CCOC(=O)[C@]12Cc3ccccc3[C@H]1N(C(C)C)C(=O)c1ccccc12` was run?
Its Potency is inconclusive: 10.6 µM [inhibitor, single point].

With `CSc1ncc(/C=C2/C(=O)NC(=O)N(c3ccc(C(C)C)cc3)C2=O)cn1` as the molecule, how does the Potency read?
The Potency was active: 15 µM.

With `O=C1NC(=O)N(c2ccccc2F)C(=O)/C1=C/c1ccc(Sc2nc3ccccc3[nH]2)o1` as the molecule, how does the Potency read?
Its Potency is inconclusive: 2.67 µM [inhibitor, partial curve, poor fit].

`Cn1cccc1CN1CCN(C(=O)COc2ccccc2)CC1` was tested. Which max response, negative = inhibition did it give?
Its max response, negative = inhibition is inactive: 0.678%.

For `O=C(/C=C/c1ccccc1)NC(=S)N1C[C@H]2C[C@H](C1)c1cccc(=O)n1C2`, which max response, negative = inhibition is on record?
Its max response, negative = inhibition is inconclusive: -30.9% [inhibitor].

Which Potency does the source give for `CC(=O)N1C[C@H](O)C[C@H]1C(=O)O` here?
Its Potency is inconclusive: 21.2 µM [inhibitor, partial curve].

With `Cc1ccc(S(=O)(=O)Nc2ccc3c(c2)CC(=O)N([C@H](C)CO)C[C@@H](C)[C@H](CN(C)S(=O)(=O)c2ccccc2)O3)cc1` as the molecule, how does the Potency read?
Its Potency is active: 21.2 µM.

With `CN1C(=O)/C(=C\c2ccc(N3CCCCCC3)cc2)C(=O)NC1=S` as the molecule, how does the Potency read?
The Potency was active: 2.12 µM.

How did the Potency turn out when `COC(=O)[C@@]1(C#N)[C@@H]2C=CC(C(C)=O)=CN2[C@@H](C(N)=O)[C@@H]1c1ccc(F)cc1` was run?
The Potency was inconclusive: 18.9 µM [inhibitor, partial curve].

How did the Potency turn out when `COc1ccc(OC)c(C2C(C#N)=C(N)Oc3c2c(C)nn3-c2ccc(C)cc2)c1` (configuration not stated) was run?
The Potency was active: 29.9 µM.

For `CN(C(=O)Cc1ccc(Cl)c(Cl)c1)C(CN1CCCC1)c1cccc(OCC(=O)O)c1` (configuration not stated), which Potency is on record?
The Potency was inconclusive: 67 µM [inhibitor, partial curve].

Which Potency does the source give for `Cc1c(C=C2C(=O)N(C)C(=O)N(C)C2=O)c(=O)n(-c2ccccc2)n1C` here?
The Potency was inconclusive: 23.8 µM [inhibitor, single point].

`COc1ccc(Cn2c(O)c(/C=N/NC(=O)c3ccccc3O)c(=O)[nH]c2=O)cc1` was tested. Which max response, negative = inhibition did it give?
The max response, negative = inhibition was inactive: -6.77%.

`C/C(=N\NC(N)=O)c1c(O)n(C)c(=O)n(C)c1=O` was tested. Which Potency did it give?
The Potency was active: 29.9 µM.

How did the Potency turn out when `Cc1cc(/C=C2\C(=O)NC(=O)N(c3ccccc3)C2=O)c(C)n1-c1ccc(C(=O)O)c(Cl)c1` was run?
Its Potency is inconclusive: 26.7 µM [inhibitor, partial curve].

With `C/C(=N\NC(=O)c1ccncc1)c1c(O)n(-c2ccccc2)c(=O)[nH]c1=O` as the molecule, how does the max response, negative = inhibition read?
Its max response, negative = inhibition is inactive: -18%.

`CCOC(=O)c1c(C)[nH]c(C)c1C(=O)C(Cc1ccccc1)N(C)C` (configuration not stated) was tested. Which max response, negative = inhibition did it give?
The max response, negative = inhibition was inactive: -18.7%.

For `CNC(=O)c1cccn(Cc2cc(C(F)(F)F)cc(C(F)(F)F)c2)c1=O`, which Potency is on record?
The Potency was inconclusive: 23.8 µM [inhibitor, single point].

`CNc1ccc2oc(C[C@H]3O[C@@]4(CC[C@H]3C)O[C@H]([C@H](C)C(=O)c3ccc[nH]3)[C@H](C)C[C@H]4C)nc2c1C(=O)O` was tested. Which Potency did it give?
Its Potency is inconclusive: 18.9 µM [inhibitor, full curve].

`CCOC(=O)c1c(-n2c(C)cc(/C=C3\C(=O)NC(=O)N(C)C3=O)c2C)sc2c1CCCC2` was tested. Which Potency did it give?
Its Potency is active: 2.67 µM.

For `COc1ccc(OCC(=O)N2CCN(Cc3ccc(SC)cc3)CC2)cc1`, which Potency is on record?
The Potency was inconclusive: 21.2 µM [inhibitor, partial curve].

How did the Potency turn out when `O=C1NC(=O)N(c2ccc3c(c2)OCO3)C(=O)/C1=C/c1cccs1` was run?
The Potency was active: 2.12 µM.

With `N#Cc1c(/N=C/C2C(=O)NC(=S)NC2=O)sc2c1CCCC2` as the molecule, how does the Potency read?
Its Potency is inconclusive: 18.9 µM [inhibitor, partial curve].

With `CCC(C)n1c(O)c(/C=N/N2CCOCC2)c(=O)[nH]c1=S` (configuration not stated) as the molecule, how does the Potency read?
The Potency was inconclusive: 29.9 µM [inhibitor, single point].

With `O=C1CC=C2C3CC4N(CCC45c4cc(O)c(O)cc4N1C25)CC3=CCBr` (configuration not stated) as the molecule, how does the Potency read?
The Potency was active: 5.32 µM.

Which Potency does the source give for `O=C(Nc1ccc(Oc2ccc(Cl)cc2)c(Cl)c1)c1cc(I)cc(I)c1O` here?
The Potency was inconclusive: 23.8 µM [inhibitor, partial curve].

With `COc1cc(N2CCOCC2)ccc1/C=C1\C(=O)NC(=O)N(C2CCCCC2)C1=O` as the molecule, how does the Potency read?
Its Potency is inconclusive: 2.99 µM [inhibitor, partial curve].

For `COc1cccc(N2C(=O)NC(=O)/C(=C/c3ccc([N+](=O)[O-])s3)C2=O)c1`, which Potency is on record?
Its Potency is active: 2.99 µM.

How did the Potency turn out when `CN1C(=O)NC(=O)/C(=C/c2ccc([N+](=O)[O-])o2)C1=O` was run?
The Potency was active: 4.74 µM.

For `CC1CCN(CC(=O)c2ccccc2Cl)CC1`, which Potency is on record?
The Potency was inconclusive: 16.8 µM [inhibitor, partial curve].

Which Potency does the source give for `CC/C(=N\NC(=O)c1ccccc1O)c1c(O)n(Cc2ccccc2)c(=O)[nH]c1=O` here?
The Potency was active: 16.8 µM.

How did the max response, negative = inhibition turn out when `CCCCn1c(O)c(C(C)=NCCN2CCCCC2)c(=O)[nH]c1=O` was run?
Its max response, negative = inhibition is inconclusive: -30.5% [inhibitor].

How did the Potency turn out when `O=c1c2ccccc2nc(-c2ccc(Cl)cc2Cl)n1-c1nccs1` was run?
Its Potency is inconclusive: 26.7 µM [inhibitor, partial curve].

With `CC(C)N1CCC2(CC1)NC(CO)(CO)CO2` as the molecule, how does the max response, negative = inhibition read?
Its max response, negative = inhibition is inactive: -9.15%.

`CCCCn1c(O)c(C(C)=NCc2ccc3c(c2)OCO3)c(=O)[nH]c1=O` was tested. Which Potency did it give?
Its Potency is inconclusive: 23.8 µM [inhibitor, partial curve].

With `O=C1NC(=O)C(=Cc2ccc3ccccc3c2)C(=O)N1` as the molecule, how does the Potency read?
Its Potency is active: 4.23 µM.

With `CC1=CC(c2ccccc2)NC(=S)N1` (configuration not stated) as the molecule, how does the Potency read?
The Potency was inconclusive: 11.9 µM [inhibitor, partial curve].

For `Cc1ccc(-c2cc(-c3ccc(C)cc3)[n+](-c3ccccc3)c(-c3ccc(C)cc3)c2)cc1`, which Potency is on record?
The Potency was inconclusive: 29.9 µM [inhibitor, partial curve].

Source: PubChem BioAssay AID720504 (National Center for Advancing Translational Sciences (NCATS), 2013)
